Laboratory results as given in the supplement of paper PMC12889115.
The other results are listed elsewhere or left out. These are raw signals, not scaled to a control.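 In the initial screen, polymyxin B was used at a concentration that permeabilizes Salmonella's outer membrane but not its inner membrane. Maximum growth was set by DMSO wells with or without polymyxin B. Since plates varied, data were ranked per plate, and compounds giving the lowest OD600 advanced as hits.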

Tested on: Salmonella enterica serovar Typhimurium SL1344
Assay: bacterial growth OD600 after 18 h with compound and polymyxin B; higher = more bacterial growth (less inhibition)
Details: 50 µM, Mueller-Hinton broth

Compound	bacterial growth OD600 (polymyxin B 0.75 µg/mL)	bacterial growth OD600 (polymyxin B 1 µg/mL)
CCNC(=O)c1cn(CC(C)C)cc(C(=O)NCC2CCCCC2)c1=O	0.212	–
COc1ccc(F)c(CC2(CCC(=O)N3CCN(C/C=C/c4ccccc4)CC3)CCC(=O)N2)c1 (stereo unspecified)	0.804	–
Cc1cc(CNc2ccc(-c3nc(Cc4ccccc4)no3)cn2)no1	0.229	–
CCn1ccnc1CN1CCC(C2CCN(CC(C)(C)C)C2)CC1 (stereo unspecified)	0.831	–
CCOc1ccc2nc(N3CCCC(C(=O)N(CC)CCn4cccn4)C3)nc(C)c2c1 (stereo unspecified)	0.776	–
CCOC(=O)N1CCN(C2CCCN(C3CCN(c4ccc(OC)cc4)CC3)C2)CC1 (stereo unspecified)	–	0.93
CC(C)Cc1noc(-c2ccc(N(C)CC3CCCCO3)nc2)n1 (stereo unspecified)	–	0.905
C=Cc1ccc(C(=O)N2CCCC(Nc3ccc(F)cc3)C2)cc1 (stereo unspecified)	–	0.721
CCCCN(C)C(=O)c1nc2ccccn2c1CN(C)Cc1ccc(CC)cc1	–	0.001
COCCN1CC(C(=O)NCc2cc(F)ccc2C)CCC1=O (stereo unspecified)	–	0.85
Cc1nccn1-c1ccc(NC(=O)C2CCCN(CCCn3cccn3)C2)cc1 (stereo unspecified)	–	0.85
O=C(NCc1ccc2c(c1)OCO2)c1ccc(N2CCC(NCCCN3CCCC3=O)CC2)cc1	0.879	–
Cc1ccc(OCc2cc(C(=O)NCc3cn(C)nc3C)no2)cc1C	0.691	–
COCCCN1C(=O)CC(CC(=O)N(C)Cc2n[nH]c3c2CCCC3)(c2ccccc2OC)C1=O (stereo unspecified)	0.868	–
CCN(CC1CCN(CCc2ccccc2C)CC1)C(=O)c1cccnc1	–	0.864
CCn1nc(C)c(CNC2CCN(c3ccc(NC(=O)CCCCc4ccccc4)cc3)CC2)c1C	0.806	–

Compound	bacterial growth OD600 (polymyxin B 0.75 µg/mL)	bacterial growth OD600 (polymyxin B 1 µg/mL)
CS(=O)(=O)N1CCC2(CCCN(Cc3cccc(F)c3F)C2=O)C1 (stereo unspecified)	–	0.858
Cc1cccc(C(=O)NC2CCCc3nc(-c4cccnc4)ncc32)n1 (stereo unspecified)	0.804	–
Cc1nc(C(=O)NCc2nc(-c3ccccc3NC(=O)CC3CCCC3)oc2C)cs1	0.062	–
OCC1CCN(c2ncc3c(n2)CCCC3NCc2cc3ccccc3o2)CC1 (stereo unspecified)	0.634	–
CCc1nc(C)c(CN2CCCC(CNC(=O)c3cc(OC)cc(OC)c3)C2)[nH]1 (stereo unspecified)	0.836	–
CC(=O)NCc1ccc2[nH]c(C)c(C)c2c1	0.847	–
COc1ccc2c(c1)-c1nc(-n3ncc(C(=O)NCC(C)(C)N4CCOCC4)c3C)ncc1CC2	1.06	–
OC1CCN(c2ccc(-c3nc(-c4cccc(Cl)c4)no3)cn2)CC1	0.276	–
CCN(CC)C(=O)c1coc(COc2ccc(F)cc2Cl)n1	–	0.711
CCN1CCCC1CNC(=O)CCC1CCN(C(=O)c2n[nH]c3ccccc23)CC1 (stereo unspecified)	–	0.9
O=C(CSc1ccccn1)NC1CCCN(Cc2ccc(Cl)cc2)C1 (stereo unspecified)	–	1.1
CC(=O)Nc1cc(C(=O)N2CCC(c3ccccc3Cl)C2)cc2ncn(CCc3ccccn3)c12 (stereo unspecified)	0.884	–
CCOc1ccccc1CN1CCN(Cc2cn(C)nc2-c2ccccc2)CC1CCO (stereo unspecified)	–	0.826
CC(=O)c1ccc(OCc2cc(C(=O)NCC(C)c3ccccc3)no2)cc1 (stereo unspecified)	–	0.875
O=C(C1CCN(c2nc3nonc3nc2NCc2cccs2)CC1)N1CCCCC1	0.819	–

Given with bars between the fields: two of the compounds above
Compound | bacterial growth OD600 (polymyxin B 0.75 µg/mL) | bacterial growth OD600 (polymyxin B 1 µg/mL)
CCc1nc(C)c(CN2CCCC(CNC(=O)c3cc(OC)cc(OC)c3)C2)[nH]1 (stereo unspecified) | 0.836 | –
CC(=O)c1ccc(OCc2cc(C(=O)NCC(C)c3ccccc3)no2)cc1 (stereo unspecified) | – | 0.875
